This note sets out measurements from article PMC8087802.

The chains behind the UniProt entries cited, without tags or fusion partners.
UniProt P08515, whole entry: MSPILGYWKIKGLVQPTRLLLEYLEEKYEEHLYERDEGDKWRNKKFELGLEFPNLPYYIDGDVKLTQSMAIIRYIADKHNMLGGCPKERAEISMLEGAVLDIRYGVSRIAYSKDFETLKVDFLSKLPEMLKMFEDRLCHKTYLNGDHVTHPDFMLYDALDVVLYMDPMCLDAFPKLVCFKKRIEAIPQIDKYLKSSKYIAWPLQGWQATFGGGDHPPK

The test system of series [1] is LcBZR1-GST. Nature of the series: EMSA. To be noted: LightShift Chemiluminescent EMSA Kit; pH and temperature not stated; recombinant protein; protein details: GST (pGEX-4T-1); label: biotin.
Series [2] has as its system LcBZR2-GST. The series is described as follows: EMSA. To be noted: LightShift Chemiluminescent EMSA Kit; pH and temperature not stated; recombinant protein; protein details: GST (pGEX-4T-1); label: biotin.
In series [3] the test system is LcBZR1-GST. Nature of the series: competition with a labelled probe. To be noted: LightShift Chemiluminescent EMSA Kit, pH and temperature not stated, recombinant protein, protein details: GST (pGEX-4T-1).
Series [4] deals with LcBZR2-GST. The series is described as follows: competition with a labelled probe. Conditions: LightShift Chemiluminescent EMSA Kit, pH and temperature not stated, recombinant protein, protein details: GST (pGEX-4T-1). (In general: Mobility shift assays separate free from complexed probe on a gel.)
A further series deals with GST (UniProt P08515). Nature of the series: EMSA. Conditions: LightShift Chemiluminescent EMSA Kit; pH and temperature not stated; recombinant protein; label: biotin.
The mark [5] stands for this setting: 100x and 500x unlabeled mutant vs N3.
[6] abbreviates: 100x and 500x unlabeled mutant vs N7.
The mark [7] stands for this setting: 100x and 500x unlabeled mutant vs N1.
The mark [8] stands for this setting: 100x and 500x unlabeled mutant vs N5.

For at least one entry, the source does not settle the construct or the ends of the probe. For some assays here: No signal at the amounts used counts as a negative. For some assays here: At least one verdict was read from the data and is not stated in words by the source.

“ACTTTTTGATCACGAAAATTGGCAAATGTTGCCAAGTAC (double strand) [LcACO3 probe]”: the binding result in the series with LcBZR1-GST [1] and in the series with LcBZR2-GST [2] was “binds” throughout.
With “ACTTTTTGATCACGAAAATTGGGGGGGGTTGCCAAGTAC (double strand) [LcACO3 mutant probe]”, the binding result in the series with LcBZR1-GST [3] (setting [5]) and with LcBZR2-GST [4] (setting [5]) was “no binding” each time.
For “CAAGTACCCCTCTCTTCTTCAAGGTATAAAAAATGTATGGACAATTTTGTT (double strand) [LcACS4 mutant probe]”, the binding result in the series with LcBZR1-GST [3] (setting [6]) and in the series on LcBZR2-GST [4] (setting [6]) was “no binding” each time.
Consider “CAAGTACCCCTCTCTTCTTCAAGGTATCGTGCGTGTATGGACAATTTTGTT (double strand) [LcACS4 probe]”, for which the binding result in the series on LcBZR1-GST [1] and in the series on LcBZR2-GST [2] was “binds” throughout.
“TAAAGAGAGATAAACTCAATAGATAAAAAACGGGCTTAAACCACCAGACAA (double strand) [LcACO2 mutant probe]”: the binding result with LcBZR1-GST [3] (setting [7]) and in the series with LcBZR2-GST [4] (setting [7]) was “no binding” throughout.
Take “TAAAGAGAGATAAACTCAATAGATCACACGCGGGCTTAAACCACCAGACAA (double strand) [LcACO2 probe]”: the binding result in the series with GST is recorded as “no binding”; in the series on LcBZR1-GST [1], “binds”; in the series on LcBZR2-GST [2] it was “binds”.
For “TATTTACATTTTTAACATTTTCAAAAAATCCACCAAGACCCACTAGTT (double strand) [LcACS1 mutant probe]”, the binding result with LcBZR1-GST [3] (setting [8]) and in the series with LcBZR2-GST [4] (setting [8]) was “no binding” in each case.
For the sequence “TATTTACATTTTTAACATTTTCCACACGTCCACCAAGACCCACTAGTT (double strand) [LcACS1 probe]”, the binding result in the series on LcBZR1-GST [1] and with LcBZR2-GST [2] was “binds” throughout.
